Substitutions are numbered along the chain they refer to. No constants are given. Whether binding was seen depends on the method and setting. In cells and extracts the contact can be indirect. Some entries that bind do so weakly or less than the wild type. Tags and fused reporters may be left off the sequences shown.
Columns and labels:
Assay in all cases: co-IP; whole cell extracts of HEK 293T cells transiently expressing DDX11-3xFlag (wild type or mutants), anti-Flag M2 agarose beads, 50 mM Tris-HCl pH 8.0, 150 mM NaCl, 0.25% Triton X-100, 10% glycerol, 2 hr at 4 C, elution with Flag peptide; Western blot of endogenous partners
[1] = target: T1, DDX11-3xFlag Q23A mutant (human) (UniProt Q96FC9)
T1 sequence: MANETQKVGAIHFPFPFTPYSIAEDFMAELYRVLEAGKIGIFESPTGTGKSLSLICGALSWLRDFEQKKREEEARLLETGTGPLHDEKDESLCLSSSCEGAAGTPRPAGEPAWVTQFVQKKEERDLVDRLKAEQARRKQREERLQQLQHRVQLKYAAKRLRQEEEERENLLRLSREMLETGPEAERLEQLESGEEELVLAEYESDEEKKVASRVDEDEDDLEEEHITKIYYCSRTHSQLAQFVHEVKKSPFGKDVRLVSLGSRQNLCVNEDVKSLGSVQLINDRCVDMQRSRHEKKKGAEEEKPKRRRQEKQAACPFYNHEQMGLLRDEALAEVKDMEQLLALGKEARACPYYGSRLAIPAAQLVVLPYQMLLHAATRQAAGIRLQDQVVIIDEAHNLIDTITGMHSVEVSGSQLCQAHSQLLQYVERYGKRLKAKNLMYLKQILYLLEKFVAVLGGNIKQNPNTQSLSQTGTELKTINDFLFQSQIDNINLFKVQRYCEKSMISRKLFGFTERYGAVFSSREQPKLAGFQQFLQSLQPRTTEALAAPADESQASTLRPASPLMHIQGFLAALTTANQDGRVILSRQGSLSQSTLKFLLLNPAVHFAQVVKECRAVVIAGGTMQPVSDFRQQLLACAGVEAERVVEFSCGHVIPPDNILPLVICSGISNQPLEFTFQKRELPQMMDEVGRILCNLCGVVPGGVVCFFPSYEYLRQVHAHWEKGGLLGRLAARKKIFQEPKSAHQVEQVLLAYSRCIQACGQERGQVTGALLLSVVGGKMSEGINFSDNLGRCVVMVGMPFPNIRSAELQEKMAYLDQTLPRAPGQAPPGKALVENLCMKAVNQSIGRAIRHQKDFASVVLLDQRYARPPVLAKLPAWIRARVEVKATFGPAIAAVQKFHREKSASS

By UniProt entry, the sequences of proteins in these tests, tags left out.
UniProt Q9UNS1: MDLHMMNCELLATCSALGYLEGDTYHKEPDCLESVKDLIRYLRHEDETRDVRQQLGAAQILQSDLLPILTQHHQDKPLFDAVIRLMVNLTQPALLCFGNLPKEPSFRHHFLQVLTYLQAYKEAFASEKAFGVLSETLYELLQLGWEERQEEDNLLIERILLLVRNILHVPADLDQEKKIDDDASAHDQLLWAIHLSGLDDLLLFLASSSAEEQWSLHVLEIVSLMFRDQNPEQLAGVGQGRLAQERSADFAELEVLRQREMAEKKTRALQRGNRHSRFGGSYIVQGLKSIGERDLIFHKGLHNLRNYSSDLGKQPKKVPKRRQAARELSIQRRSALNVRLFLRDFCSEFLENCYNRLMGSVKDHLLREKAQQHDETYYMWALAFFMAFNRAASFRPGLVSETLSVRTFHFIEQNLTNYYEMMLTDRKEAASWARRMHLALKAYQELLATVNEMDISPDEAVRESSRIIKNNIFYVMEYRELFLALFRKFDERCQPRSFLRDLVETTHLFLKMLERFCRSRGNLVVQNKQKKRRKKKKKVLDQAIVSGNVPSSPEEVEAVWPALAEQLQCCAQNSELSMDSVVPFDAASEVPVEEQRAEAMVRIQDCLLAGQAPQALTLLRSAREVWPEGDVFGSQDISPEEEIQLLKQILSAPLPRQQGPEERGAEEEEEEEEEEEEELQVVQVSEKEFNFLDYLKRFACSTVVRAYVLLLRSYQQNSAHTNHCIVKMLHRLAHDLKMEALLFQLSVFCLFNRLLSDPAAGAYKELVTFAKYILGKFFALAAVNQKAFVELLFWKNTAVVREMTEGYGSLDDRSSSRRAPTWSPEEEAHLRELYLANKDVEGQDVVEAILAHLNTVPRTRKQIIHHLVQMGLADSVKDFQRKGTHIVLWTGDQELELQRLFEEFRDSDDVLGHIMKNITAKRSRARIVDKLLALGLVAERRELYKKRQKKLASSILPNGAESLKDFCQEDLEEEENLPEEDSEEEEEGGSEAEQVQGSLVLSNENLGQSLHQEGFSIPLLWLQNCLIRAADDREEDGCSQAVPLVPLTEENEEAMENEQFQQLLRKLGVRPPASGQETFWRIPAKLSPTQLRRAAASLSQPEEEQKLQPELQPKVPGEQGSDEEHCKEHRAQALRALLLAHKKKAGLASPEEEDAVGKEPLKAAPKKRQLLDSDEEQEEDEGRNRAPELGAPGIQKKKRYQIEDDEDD

[2] = target: T2, DDX11-3xFlag KAE mutant (human) (UniProt Q96FC9)
T2 sequence: T1 sequence with A23Q, E201K, Y202A

[3] = target: T3, DDX11-3xFlag K50R mutant (human) (UniProt Q96FC9)
T3 sequence: T1 sequence with A23Q, K50R

binding [1]: binds
binding [2]: binds
binding [3]: binds
Substance: endogenous Timeless (HEK 293T) (from UniProt Q9UNS1 1-1208)

Source: publication PMC6179184, “Interaction of the Warsaw breakage syndrome DNA helicase DDX11 with the replication fork-protection factor Timeless promotes sister chromatid cohesion” (PLoS Genetics, 2018)
